Assay results: paper PMC6451097

The chains behind the UniProt entries cited, without tags or fusion partners. Residues count along the entry.
UniProt P67809, 1-180 E117C: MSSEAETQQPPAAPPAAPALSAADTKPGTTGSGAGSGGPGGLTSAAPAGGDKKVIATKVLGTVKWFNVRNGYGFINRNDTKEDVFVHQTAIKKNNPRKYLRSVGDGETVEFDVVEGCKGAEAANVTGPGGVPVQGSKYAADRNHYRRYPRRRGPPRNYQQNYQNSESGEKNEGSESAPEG
UniProt P67809, 1-180 T108C: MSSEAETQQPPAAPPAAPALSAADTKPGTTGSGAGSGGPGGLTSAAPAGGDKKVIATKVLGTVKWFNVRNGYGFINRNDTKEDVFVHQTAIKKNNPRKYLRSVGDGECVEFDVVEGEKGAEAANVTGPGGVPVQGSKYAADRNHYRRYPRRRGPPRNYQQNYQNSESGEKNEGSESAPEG
UniProt P67809, 1-180 T62C: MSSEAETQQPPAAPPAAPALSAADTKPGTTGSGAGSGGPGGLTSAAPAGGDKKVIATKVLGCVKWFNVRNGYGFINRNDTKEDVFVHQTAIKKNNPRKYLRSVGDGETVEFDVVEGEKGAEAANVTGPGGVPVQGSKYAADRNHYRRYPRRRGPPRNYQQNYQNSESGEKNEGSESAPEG
UniProt P67809, 1-180 T89C: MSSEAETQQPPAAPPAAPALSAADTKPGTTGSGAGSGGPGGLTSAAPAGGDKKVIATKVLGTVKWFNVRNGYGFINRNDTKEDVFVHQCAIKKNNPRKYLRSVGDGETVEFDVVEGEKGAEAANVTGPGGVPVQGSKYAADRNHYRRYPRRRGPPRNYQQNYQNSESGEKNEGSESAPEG
UniProt P67809, 1-180 V114C: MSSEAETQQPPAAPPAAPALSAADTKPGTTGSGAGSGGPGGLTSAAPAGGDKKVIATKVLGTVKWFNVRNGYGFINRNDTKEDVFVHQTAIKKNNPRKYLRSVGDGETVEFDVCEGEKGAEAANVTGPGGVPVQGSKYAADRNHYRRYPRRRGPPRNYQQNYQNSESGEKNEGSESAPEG
UniProt P67809, 1-180: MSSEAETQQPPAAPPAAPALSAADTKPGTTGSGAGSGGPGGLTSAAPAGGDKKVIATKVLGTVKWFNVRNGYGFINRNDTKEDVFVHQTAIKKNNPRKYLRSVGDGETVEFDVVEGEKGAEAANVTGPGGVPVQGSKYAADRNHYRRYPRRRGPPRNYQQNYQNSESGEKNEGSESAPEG

Columns and labels:
[1] = target: YB-1C E117C-MTSL (Homo sapiens) (UniProt P67809); test: NMR PRE; settings: NMR: 100 uM protein, 1:1 oligo, 298 K (RNA 298 and 303 K); recombinant protein; residues 1-180; protein details: MTSL spin label; single-stranded DNA
[2] = target: YB-1C T108C-MTSL (Homo sapiens) (UniProt P67809); test: NMR PRE; settings: NMR: 100 uM protein, 1:1 oligo, 298 K (RNA 298 and 303 K); recombinant protein; residues 1-180; protein details: MTSL spin label; single-stranded DNA
[3] = target: YB-1C T62C-MTSL (Homo sapiens) (UniProt P67809); test: NMR PRE; settings: NMR: 100 uM protein, 1:1 oligo, 298 K (RNA 298 and 303 K); recombinant protein; residues 1-180; protein details: MTSL spin label; single-stranded DNA
[4] = target: YB-1C T89C-MTSL (Homo sapiens) (UniProt P67809); test: NMR PRE; settings: NMR: 100 uM protein, 1:1 oligo, 298 K (RNA 298 and 303 K); recombinant protein; residues 1-180; protein details: MTSL spin label; single-stranded DNA
[5] = target: YB-1C V114C-MTSL (Homo sapiens) (UniProt P67809); test: NMR PRE; settings: NMR: 100 uM protein, 1:1 oligo, 298 K (RNA 298 and 303 K); recombinant protein; residues 1-180; protein details: MTSL spin label; single-stranded DNA
[6] = target: YB-1C (Homo sapiens) (UniProt P67809); test: NMR HSQC; settings: NMR: 100 uM protein, 1:1 oligo, 298 K (RNA 298 and 303 K), recombinant protein, residues 1-180, protein details: His-tag (pET22b), untagged version also used
[7] = target: YB-1C (Homo sapiens) (UniProt P67809); test: SAXS; settings: 7.0 uM ssDNA; recombinant protein; residues 1-180; protein details: His-tag (pET22b), untagged version also used; single-stranded DNA

## CCCCCCCCCC [dC10]
[1]
  binding result: binds
[2]
  binding result: binds
[3]
  binding result: binds
[4]
  binding result: binds
[5]
  binding result: binds

## CCCCCCCCCC [rC10]
[6]; 1:1
  binding result: binds

## UUUUUUUUUUUUUUUUUUUUUUUUUUUUUU [rU30]
[6]; 1:1, peak broadening
  binding result: binds

## TTTTTTTTTTTTTTTTTTTTTTTTTTTTTT [dT30]
[7]
  binding result: binds
[6]; 1:1, peak broadening, single-stranded DNA
  binding result: binds

Construct, isoform or probe ends are uncertain for at least one entry. At least one verdict rests on a figure or table, not on a statement of the authors.
